In the supplement of paper PMC12067093, “Discovery and optimisation of a covalent ligand for TRIM25 and its application to targeted protein ubiquitination” (Chemical Science, 2025):
The list shows a part of the results.

compound: CC1Cc2ccccc2N1C(=O)C1CCCN(C1)C(=O)CCl (mixture of isomers) [TRIM25 ligand 11 (diastereomer mixture)]; test: probe-labelled cysteine peptide fold change vs DMSO (competition) (log2 fold change); higher = less target engagement (more negative = stronger competition); settings: 10 µM; THP-1; incubation time: 4 h
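Also: competitive chemoproteomic profiling in live THP-1 cells with an iodoacetamide desthiobiotin (IA-DTB) probe, comparing probe-labelled peptide intensities in compound-treated cells against DMSO-treated controls.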

Row | Target | probe-labelled cysteine peptide fold change
1 | DARS2_Q6PI48_459_LRLECADLLETR (UniProt Q6PI48) | -0.0104
2 | DBNL_Q9UJU6_97_KGACASHVSTMASFLK (UniProt Q9UJU6) | -0.0713
3 | DARS2_Q6PI48_54_TNTCGELR (UniProt Q6PI48) | 0.108
4 | CUL2_Q13617_103_GADYMDCLYR (UniProt Q13617) | 0.191
5 | CWC22_Q9HCG8_497_ELCNMILDCCAQQR (UniProt Q9HCG8) | -0.0492
6 | CXXC1_Q9P0U4_420_IQQWQQSPCIAEEHGK (UniProt Q9P0U4) | 0.116
7 | DCAF1_Q9Y4B6_1070_YGGVDGGCFDR (UniProt Q9Y4B6) | -0.134
8 | DCAF11_Q8TEB1_460_FSPIHSTGQQFIYSGCSTGK (UniProt Q8TEB1) | 0.245
9 | CXXC1_Q9P0U4_181+184+187_TEDCGHCDFCR (UniProt Q9P0U4) | 0.00453
10 | CTPS2_Q9NRF8_313_DCYASVFK (UniProt Q9NRF8) | 0.228
11 | CYB5R3_P00387_274+284_DHLPPPEEEPLVLMCGPPPMIQYACLPNLDHVGHPTER (UniProt P00387) | 0.161
12 | CTSG_P08311_186_RQICVGDR (UniProt P08311) | 0.183
13 | DBNL_Q9UJU6_97_GACASHVSTMASFLK (UniProt Q9UJU6) | 0.0766
14 | DCP2_Q8IU60_391_KLQDNFETDAVYDLPSSSEDQLLEHAEGQPVACNGHCK (UniProt Q8IU60) | -0.209
15 | CYTH1_Q15438_323_EVEDSKKPNCFELYIPDNK (UniProt Q15438) | -0.213
16 | CTSB_P07858_108_DQGSCGSCWAFGAVEAISDR (UniProt P07858) | 0.0107
17 | CTSH_P09668_272_TGIYSSTSCHK (UniProt P09668) | 0.223
18 | DARS_P14868_130_IGSCTQQDVELHVQK (UniProt P14868) | 0.0673
19 | CXXC1_Q9P0U4_420_IQQWQQSPCIAEEHGKK (UniProt Q9P0U4) | -0.0635
20 | CUL9_Q8IWT3_1725_CLPTEFCDALDR (UniProt Q8IWT3) | -0.00954
21 | DCAF6_Q58WW2_513_GIGSHCK (UniProt Q58WW2) | 0.0159
22 | CTSB_P07858_179_GLVSGGLYESHVGCR (UniProt P07858) | 0.274
23 | CYB5R3_P00387_204_AIMKDPDDHTVCHLLFANQTEK (UniProt P00387) | -0.116

same assay, conditions: 50 µM; THP-1; incubation time: 4 h

Row | Target | probe-labelled cysteine peptide fold change
24 | CTSZ_Q9UBR2_296_YNLAIEEHCTFGDPIV (UniProt Q9UBR2) | -0.374
25 | CUL4A_Q13619_94_YNLEELYQAVENLCSHK (UniProt Q13619) | -0.0336
26 | DARS2_Q6PI48_202_MREYLCNLHGFVDIETPTLFK (UniProt Q6PI48) | 0.0625
27 | DBNL_Q9UJU6-3_256_NEQGSTCASLQESAVHPR (UniProt Q9UJU6) | -0.219
28 | CYB5R3_P00387_204_DPDDHTVCHLLFANQTEK (UniProt P00387) | -0.00425
29 | DCTN3_O75935_140_LAQIHIQQQDQCVEITEESK (UniProt O75935) | -0.142
30 | CUL4B_Q13620_292+297_CWQNHCR (UniProt Q13620) | 0.228
31 | CUL4A_Q13619_289_PLIACVEK (UniProt Q13619) | 0.144
32 | CYB5R3_P00387_284_DHLPPPEEEPLVLMCGPPPMIQYACLPNLDHVGHPTER (UniProt P00387) | -0.15
33 | DCAF10_Q5QP82_369_VSGSPCHHSDSNSSEK (UniProt Q5QP82) | -0.489
34 | CUL1_Q13616_496_QACGFEYTSK (UniProt Q13616) | -0.0347
35 | DBN1_Q16643_96_CACASHVAK (UniProt Q16643) | 0.0518
36 | DCTN1_Q14203_742_YYQHLYSIHLAEQPEDCTMQLADHIK (UniProt Q14203) | -0.355
37 | CYC1_P08574_139_HLVGVCYTEDEAK (UniProt P08574) | 0.285
38 | DAZAP1_Q96EP5_124_IFVGGIPHNCGETELR (UniProt Q96EP5) | 0.188
39 | DBT_P11182_99_EGDTVSQFDSICEVQSDK (UniProt P11182) | 0.129
40 | DARS2_Q6PI48_459_LRLECADLLETR (UniProt Q6PI48) | -0.00375
41 | DBNL_Q9UJU6_97_KGACASHVSTMASFLK (UniProt Q9UJU6) | -0.568
42 | DARS2_Q6PI48_54_TNTCGELR (UniProt Q6PI48) | 0.189
43 | CUL2_Q13617_103_GADYMDCLYR (UniProt Q13617) | 0.129

Row | Target | probe-labelled cysteine peptide fold change
44 | CWC22_Q9HCG8_497_ELCNMILDCCAQQR (UniProt Q9HCG8) | 0.00266
45 | CXXC1_Q9P0U4_420_IQQWQQSPCIAEEHGK (UniProt Q9P0U4) | 0.0898
46 | DCAF1_Q9Y4B6_1070_YGGVDGGCFDR (UniProt Q9Y4B6) | -0.244
47 | DCAF11_Q8TEB1_460_FSPIHSTGQQFIYSGCSTGK (UniProt Q8TEB1) | -0.00752
48 | CXXC1_Q9P0U4_181+184+187_TEDCGHCDFCR (UniProt Q9P0U4) | -0.165
49 | CTPS2_Q9NRF8_313_DCYASVFK (UniProt Q9NRF8) | 0.122
50 | CYB5R3_P00387_274+284_DHLPPPEEEPLVLMCGPPPMIQYACLPNLDHVGHPTER (UniProt P00387) | 0.0132
51 | CTSG_P08311_186_RQICVGDR (UniProt P08311) | 0.213
52 | DBNL_Q9UJU6_97_GACASHVSTMASFLK (UniProt Q9UJU6) | -0.34
53 | DCP2_Q8IU60_391_KLQDNFETDAVYDLPSSSEDQLLEHAEGQPVACNGHCK (UniProt Q8IU60) | -0.464
54 | CYTH1_Q15438_323_EVEDSKKPNCFELYIPDNK (UniProt Q15438) | -0.14
55 | CTSB_P07858_108_DQGSCGSCWAFGAVEAISDR (UniProt P07858) | -0.0929
56 | CTSH_P09668_272_TGIYSSTSCHK (UniProt P09668) | -0.279
57 | DARS_P14868_130_IGSCTQQDVELHVQK (UniProt P14868) | 0.0472
58 | CXXC1_Q9P0U4_420_IQQWQQSPCIAEEHGKK (UniProt Q9P0U4) | -0.133
59 | CUL9_Q8IWT3_1725_CLPTEFCDALDR (UniProt Q8IWT3) | 0.182
60 | DCAF6_Q58WW2_513_GIGSHCK (UniProt Q58WW2) | -0.114
61 | CTSB_P07858_179_GLVSGGLYESHVGCR (UniProt P07858) | 0.0981
62 | CYB5R3_P00387_204_AIMKDPDDHTVCHLLFANQTEK (UniProt P00387) | -0.072
